Values after ≈ are worked out from the molar mass of the structure shown. Like-named read-outs stand apart in the source and are kept apart here.
Test system: Cryptococcus neoformans
Test: agar dilution assay (MIC) against expanded panel of 84 Cryptococcus neoformans isolates
Format: cell-based
Settings: 84 isolates
Procedure: Such activity may be illustrated with test results against Cryptococcus neoformans employing yeast nitrogen base dextrose agar medium. In carrying out the assay, Compound I was solubilized in 10 percent dimethyl sulfoxide (DMSO) supplemented with one drop of Tween 20. Twofold dilutions were made with sterile distilled water/10 percent DMSO to obtain final drug concentrations in the agar dilution assay plates ranging from 128 to 0.06 μg/ml against two strains of Cryptococcus neoformans and subsequently against an expanded panel of 84 Cryptococcus strains at concentrations ranging from 0.008 to 16.0 μg/ml.
Nystatin or amphotericin B was used as a positive control. For the assay, nystatin was solubilized in 10 percent dimethylformamide and diluted in sterile distilled water; amphotericin B was solubilized by expressing water directly into a lyophilized cake and shaking until the colloidal solution was clear and then diluted in sterile distilled water. The final drug concentrations ranged from 0.063 to 128 μg/ml.

Which MIC (read-out: G-MIC (geometric means of MIC)) does the source give for `C[C@@H]1[C@H](O)[C@@H](C)/C=C/C=C/C=C/C=C/C=C/C=C/C=C/[C@H](O[C@@H]2O[C@H](C)[C@@H](O)[C@H](N)[C@@H]2O)C[C@@H]2O[C@](O)(C[C@@H](O)C[C@@H](O)[C@H](O)CC[C@@H](O)C[C@@H](O)CC(=O)O[C@H]1C)C[C@H](O)[C@H]2C(=O)O` [Amphotericin B, amphotericin B] here?
The MIC was under 0.16 µg/mL.

What about the MIC (read-out: Range (MIC)) of the same compound?
Its MIC is 0.063 to 0.25 µg/mL (≈ 0.0682 to 0.271 µM).

Reference: patent publication US4946835A (priority 1988, dated 1990)
